No constants are given. Whether binding was seen depends on the method and setting. Some entries that bind do so weakly or less than the wild type.
Target: T1, mouse wild-type FGFR4 (FGFR4 Gly385) (mouse, UniProt Q03142 17-799)
T1 construct: Endogenous hepatic FGFR4, immunoprecipitated from mouse liver lysates; also called hepatic FGFR4
Test: in vivo SILAC LC-MS/MS of FGFR4 immunoprecipitates from mouse liver

The chains behind the UniProt entries cited, without tags or fusion partners. Where a name states a change or a piece, a line headed by the entry shows the natural chain unless it says otherwise.
UniProt Q03142: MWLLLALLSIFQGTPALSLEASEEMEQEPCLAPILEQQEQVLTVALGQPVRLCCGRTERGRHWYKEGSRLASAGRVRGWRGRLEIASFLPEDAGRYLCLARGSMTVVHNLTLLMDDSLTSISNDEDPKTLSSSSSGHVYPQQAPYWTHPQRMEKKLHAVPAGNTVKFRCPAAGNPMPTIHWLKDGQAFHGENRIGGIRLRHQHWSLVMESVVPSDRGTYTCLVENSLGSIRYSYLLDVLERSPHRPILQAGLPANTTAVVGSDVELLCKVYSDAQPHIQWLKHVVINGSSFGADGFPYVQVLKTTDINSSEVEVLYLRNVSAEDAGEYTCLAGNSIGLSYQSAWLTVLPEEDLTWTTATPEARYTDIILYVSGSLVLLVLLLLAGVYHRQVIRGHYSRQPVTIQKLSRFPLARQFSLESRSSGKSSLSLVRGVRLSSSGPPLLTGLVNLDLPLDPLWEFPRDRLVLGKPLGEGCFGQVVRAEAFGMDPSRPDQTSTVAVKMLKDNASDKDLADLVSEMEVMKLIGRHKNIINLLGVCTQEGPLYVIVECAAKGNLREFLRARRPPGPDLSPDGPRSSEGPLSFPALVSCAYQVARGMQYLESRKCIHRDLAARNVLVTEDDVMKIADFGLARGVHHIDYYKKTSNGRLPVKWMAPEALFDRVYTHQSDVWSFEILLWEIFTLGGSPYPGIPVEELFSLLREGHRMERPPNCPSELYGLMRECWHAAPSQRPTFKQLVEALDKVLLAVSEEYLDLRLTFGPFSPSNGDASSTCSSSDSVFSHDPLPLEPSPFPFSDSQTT

binding: binds
B1: Beta-klotho (receptor, mouse, UniProt Q99N32 1-1043, looked up)
chain: MKTGCAAGSPGNEWIFFSSDERNTRSRKTMSNRALQRSAVLSAFVLLRAVTGFSGDGKAIWDKKQYVSPVNPSQLFLYDTFPKNFSWGVGTGAFQVEGSWKTDGRGPSIWDRYVYSHLRGVNGTDRSTDSYIFLEKDLLALDFLGVSFYQFSISWPRLFPNGTVAAVNAQGLRYYRALLDSLVLRNIEPIVTLYHWDLPLTLQEEYGGWKNATMIDLFNDYATYCFQTFGDRVKYWITIHNPYLVAWHGFGTGMHAPGEKGNLTAVYTVGHNLIKAHSKVWHNYDKNFRPHQKGWLSITLGSHWIEPNRTDNMEDVINCQHSMSSVLGWFANPIHGDGDYPEFMKTGAMIPEFSEAEKEEVRGTADFFAFSFGPNNFRPSNTVVKMGQNVSLNLRQVLNWIKLEYDDPQILISENGWFTDSYIKTEDTTAIYMMKNFLNQVLQAIKFDEIRVFGYTAWTLLDGFEWQDAYTTRRGLFYVDFNSEQKERKPKSSAHYYKQIIQDNGFPLKESTPDMKGRFPCDFSWGVTESVLKPEFTVSSPQFTDPHLYVWNVTGNRLLYRVEGVRLKTRPSQCTDYVSIKKRVEMLAKMKVTHYQFALDWTSILPTGNLSKVNRQVLRYYRCVVSEGLKLGVFPMVTLYHPTHSHLGLPLPLLSSGGWLNMNTAKAFQDYAELCFRELGDLVKLWITINEPNRLSDMYNRTSNDTYRAAHNLMIAHAQVWHLYDRQYRPVQHGAVSLSLHCDWAEPANPFVDSHWKAAERFLQFEIAWFADPLFKTGDYPSVMKEYIASKNQRGLSSSVLPRFTAKESRLVKGTVDFYALNHFTTRFVIHKQLNTNRSVADRDVQFLQDITRLSSPSRLAVTPWGVRKLLAWIRRNYRDRDIYITANGIDDLALEDDQIRKYYLEKYVQEALKAYLIDKVKIKGYYAFKLTEEKSKPRFGFFTSDFRAKSSVQFYSKLISSSGLPAENRSPACGQPAEDTDCTICSFLVEKKPLIFFGCCFISTLAVLLSITVFHHQKRRKFQKARNLQNIPLKKGHSRVFS
notes: Endogenous protein co-immunoprecipitated with hepatic FGFR4; also called βKlotho

Reference: patent publication US20110179505A1, “RODENT CANCER MODEL FOR HUMAN FGFR4 ARG388 POLYMORPHISM” (priority 2008, published 2011)
